This note sets out measurements from article PMC3242765, “Inhibitors of Alphavirus Entry and Replication Identified with a Stable Chikungunya Replicon Cell Line and Virus-Based Assays” (PLoS ONE, 2011).

For one assay, the system named is BHK cells. Briefly: Cell viability ATP assay, BHK cells. Conditions: 48 h exposure of BHK cells. In kind it is cell-based, hamster.
The next assay concerns SFV-Rluc. Conditions: read-out: SFV IC50.

One may read the IC50 as the point on the concentration scale where inhibition reaches its midpoint.

For `Cc1cc(=O)oc2cc(O)ccc12` [Methyl umbelliferone], the IC50 in the assay on BHK cells came out at 180 µM; with SFV-Rluc, 18.8 µM.
